# Publication PMC12325741 (2025)
# Sequences of proteins named here, by UniProt entry; tags and fusion partners are left off. Residues count along the entry.
# UniProt P08727: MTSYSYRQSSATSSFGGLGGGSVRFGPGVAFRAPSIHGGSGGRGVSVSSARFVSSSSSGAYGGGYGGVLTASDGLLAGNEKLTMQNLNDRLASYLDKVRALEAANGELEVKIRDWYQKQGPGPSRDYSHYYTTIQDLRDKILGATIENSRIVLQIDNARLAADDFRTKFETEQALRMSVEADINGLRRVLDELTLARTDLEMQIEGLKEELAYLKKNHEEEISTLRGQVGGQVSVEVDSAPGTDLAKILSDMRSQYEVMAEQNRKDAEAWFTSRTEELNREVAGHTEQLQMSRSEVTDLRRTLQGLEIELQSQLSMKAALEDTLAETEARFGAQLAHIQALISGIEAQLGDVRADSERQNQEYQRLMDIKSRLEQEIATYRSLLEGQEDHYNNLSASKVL
# UniProt Q04721, residues 26-2471: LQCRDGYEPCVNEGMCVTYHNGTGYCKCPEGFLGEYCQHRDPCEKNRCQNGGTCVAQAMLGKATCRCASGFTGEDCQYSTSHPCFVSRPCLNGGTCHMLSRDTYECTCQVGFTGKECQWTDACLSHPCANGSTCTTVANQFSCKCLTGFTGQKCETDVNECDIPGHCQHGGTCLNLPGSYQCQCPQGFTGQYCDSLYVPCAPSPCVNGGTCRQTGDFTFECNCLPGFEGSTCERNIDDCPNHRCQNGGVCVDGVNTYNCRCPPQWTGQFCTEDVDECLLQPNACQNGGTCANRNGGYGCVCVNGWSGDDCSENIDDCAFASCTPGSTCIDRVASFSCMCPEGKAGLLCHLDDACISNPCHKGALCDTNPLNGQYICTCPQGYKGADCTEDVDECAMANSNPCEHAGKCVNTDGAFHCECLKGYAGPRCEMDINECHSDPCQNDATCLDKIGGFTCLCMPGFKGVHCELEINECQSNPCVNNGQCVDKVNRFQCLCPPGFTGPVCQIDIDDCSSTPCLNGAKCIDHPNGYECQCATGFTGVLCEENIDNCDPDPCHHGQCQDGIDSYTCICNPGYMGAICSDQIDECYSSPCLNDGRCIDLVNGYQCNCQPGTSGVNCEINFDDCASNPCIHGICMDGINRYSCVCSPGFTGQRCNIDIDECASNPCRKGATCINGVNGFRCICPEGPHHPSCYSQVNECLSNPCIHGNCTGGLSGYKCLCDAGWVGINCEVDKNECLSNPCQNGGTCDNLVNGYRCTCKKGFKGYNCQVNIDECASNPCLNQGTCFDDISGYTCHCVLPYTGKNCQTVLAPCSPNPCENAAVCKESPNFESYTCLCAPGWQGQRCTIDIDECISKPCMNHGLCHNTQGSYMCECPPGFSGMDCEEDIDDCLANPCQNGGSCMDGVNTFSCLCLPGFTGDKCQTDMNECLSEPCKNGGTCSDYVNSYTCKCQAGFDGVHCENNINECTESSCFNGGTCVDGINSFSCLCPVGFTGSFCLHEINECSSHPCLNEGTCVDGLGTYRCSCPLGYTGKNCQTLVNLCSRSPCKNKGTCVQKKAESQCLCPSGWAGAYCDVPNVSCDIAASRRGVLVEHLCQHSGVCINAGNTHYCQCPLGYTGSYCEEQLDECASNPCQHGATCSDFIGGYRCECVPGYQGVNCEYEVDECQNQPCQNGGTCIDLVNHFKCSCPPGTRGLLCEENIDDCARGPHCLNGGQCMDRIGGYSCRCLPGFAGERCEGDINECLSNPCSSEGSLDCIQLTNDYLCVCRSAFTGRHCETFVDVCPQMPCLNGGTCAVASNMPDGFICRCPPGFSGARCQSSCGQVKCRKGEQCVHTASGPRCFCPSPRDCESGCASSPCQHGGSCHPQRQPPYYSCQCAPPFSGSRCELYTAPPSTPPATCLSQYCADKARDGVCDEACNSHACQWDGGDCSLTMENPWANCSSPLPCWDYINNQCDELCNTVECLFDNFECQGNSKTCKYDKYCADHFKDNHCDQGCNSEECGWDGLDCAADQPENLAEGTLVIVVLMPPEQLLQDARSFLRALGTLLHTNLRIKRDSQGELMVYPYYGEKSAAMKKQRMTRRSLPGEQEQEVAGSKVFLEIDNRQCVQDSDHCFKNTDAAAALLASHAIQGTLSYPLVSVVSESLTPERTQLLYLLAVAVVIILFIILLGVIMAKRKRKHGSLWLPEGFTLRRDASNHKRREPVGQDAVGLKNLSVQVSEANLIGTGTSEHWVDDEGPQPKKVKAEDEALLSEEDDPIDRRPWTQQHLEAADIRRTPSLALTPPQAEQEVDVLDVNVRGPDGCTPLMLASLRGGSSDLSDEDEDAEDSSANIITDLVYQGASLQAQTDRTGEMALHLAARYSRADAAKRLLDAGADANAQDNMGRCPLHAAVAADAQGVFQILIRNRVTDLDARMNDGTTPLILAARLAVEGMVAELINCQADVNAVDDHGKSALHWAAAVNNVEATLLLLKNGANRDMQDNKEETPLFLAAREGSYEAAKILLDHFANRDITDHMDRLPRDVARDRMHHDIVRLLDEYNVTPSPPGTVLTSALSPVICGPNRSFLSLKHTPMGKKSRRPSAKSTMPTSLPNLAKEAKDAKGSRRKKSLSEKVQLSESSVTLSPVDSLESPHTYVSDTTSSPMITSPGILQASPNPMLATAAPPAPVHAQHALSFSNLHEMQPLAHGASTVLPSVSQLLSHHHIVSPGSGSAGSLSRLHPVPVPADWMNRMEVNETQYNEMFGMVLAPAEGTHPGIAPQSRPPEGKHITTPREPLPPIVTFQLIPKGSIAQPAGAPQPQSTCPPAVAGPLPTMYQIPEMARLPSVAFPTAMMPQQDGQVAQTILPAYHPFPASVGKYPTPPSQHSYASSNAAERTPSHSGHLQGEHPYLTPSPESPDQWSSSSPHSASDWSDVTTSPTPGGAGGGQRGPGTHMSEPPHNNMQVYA
# These are yes or no findings as the source states them, for the method shown. Binding seen in cells or lysates may run through a third protein. These calls come from enrichment with a bait or labelling near it, and not all partners need be listed.
# Biological target: CK19 (human (endogenous in Hucct1)) (UniProt P08727)
# Assay: affinity purification with mass spectrometry; Co-IP with anti-CK19 from Hucct1 cells treated with TNFα (50 ng/mL) for 72 h; silver-stained gel, mass spectrometry
substance,measurement,value
Notch2 (from UniProt Q04721 26-2471) (receptor),binding,binds
